Some of the results follow.

The chains behind the UniProt entries cited, without tags or fusion partners.
UniProt Q0JBA9, entry or part of it: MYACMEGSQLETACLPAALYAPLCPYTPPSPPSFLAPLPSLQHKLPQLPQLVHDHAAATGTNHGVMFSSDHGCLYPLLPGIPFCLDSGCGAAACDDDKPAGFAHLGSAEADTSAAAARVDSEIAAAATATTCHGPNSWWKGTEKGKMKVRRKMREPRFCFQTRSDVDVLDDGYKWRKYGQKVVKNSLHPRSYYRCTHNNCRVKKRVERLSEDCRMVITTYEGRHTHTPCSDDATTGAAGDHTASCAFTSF

The target in the assay is OsWRKY34 (Oryza sativa, UniProt Q0JBA9 1-250). Kind of assay: protein-binding microarray (RPBM); PBS, 2% BSA, 51.3 ng/ul salmon testes DNA, 50 uM zinc acetate, 200 nM TF, 25 C, 1 h; high values mean tight binding. The conditions noted are these: protein: recombinant; tags: N-terminal polyhistidine and DsRed monomer fusion (pET32a); label: CyDye5-dUTP incorporated in the synthesized complementary strand; 3' TTTTT single-stranded linker to array surface; dsDNA, one strand shown. Summed up: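 The binding signal is fluorescence intensity per feature, in arbitrary units, read on an Axon 4000B scanner. Polyhistidine- and DsRed-tagged transcription factors (N-terminal fusions) from E. coli BL21-CodonPlus were purified on Ni–NTA and applied at 200 nM for 1 h at 25 °C to a double-stranded, BSA-blocked custom Agilent array in buffer with 50 µM zinc acetate.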
Consider “TTGCTTTTCCTTTGTAGCTTCCCTTGCACTTATCATACTTCGGAGTCACCTAGTGCAG”, for which the binding signal is 10200 fluorescence intensity (a.u.).
Take “CATATATCCAAACCCTAGCCATCCATTCTTCACCTTCTCTCGGAGTCACCTAGTGCAG”: the binding signal is 8240 fluorescence intensity (a.u.).
Consider “GCGGTATCACTCACACGGTCACACCATGTTTCCACATTGCCGGAGTCACCTAGTGCAG”, for which the binding signal is 8060 fluorescence intensity (a.u.).
To “GGCCCAATTTCCCCTTCCGTTGACGTTGCAAGATTTTTATCGGAGTCACCTAGTGCAG” belongs 11000 fluorescence intensity (a.u.); to “GCACCCCGCCGCCGTGGCCACCTCCGCCCACACCGTCGTCCGGAGTCACCTAGTGCAG”, 8070 fluorescence intensity (a.u.); to “AGCCTGGGTGCCTCTGATTTGTTGTCTTGTAGTGTAACTGCGGAGTCACCTAGTGCAG”, 8500 fluorescence intensity (a.u.).
With “ATCAACTGATCCTGACTCCGTTACCACCCGGCATATTGTTCGGAGTCACCTAGTGCAG”, the binding signal was 13700 fluorescence intensity (a.u.).
“TTCTATCTCTCTCAGGCTAACTAATTTCATAAGCACACATCGGAGTCACCTAGTGCAG”: the binding signal was 9150 fluorescence intensity (a.u.).
To “AACCACATCATCTATATCCCGTTAGTATAGGTTGCTCATACGGAGTCACCTAGTGCAG” belongs 9040 fluorescence intensity (a.u.); to “CCTAATTATTTTTCCAATTCTTTTAAGTCCTTTGCTTAAACGGAGTCACCTAGTGCAG”, 8520 fluorescence intensity (a.u.).
Consider “TTAGGGCCACGGATTAGATTTCGATCACTTTTGAGGGTCACGGAGTCACCTAGTGCAG”, for which the binding signal is 8440 fluorescence intensity (a.u.).
Consider “AGAGATTACTTGCGCTTCGATTTGATTTTAGGTCAATGCTCGGAGTCACCTAGTGCAG”, for which the binding signal is 8730 fluorescence intensity (a.u.).
To “TTTGTGTGTCTTGTTTATATGTGCACATATCTTGTCTTGTCGGAGTCACCTAGTGCAG” belongs 8370 fluorescence intensity (a.u.); to “TGGAAGTCTGGAAGGCGCTGTACCTTCGTCTCGCCCGTCACGGAGTCACCTAGTGCAG”, 8650 fluorescence intensity (a.u.).
With “CACACATAAACTTTTAACTTTTTTATCACATCGTTTTAATCGGAGTCACCTAGTGCAG”, the binding signal is 8490 fluorescence intensity (a.u.).
To “CCCGCTTCTTCCCCGCTGCTTGAATCAGTCGTATCCTCACCGGAGTCACCTAGTGCAG” belongs 11400 fluorescence intensity (a.u.); to “CCGGAGACGACGATTGCTTTCCAGATGGGCTCAATTCCACCGGAGTCACCTAGTGCAG”, 8700 fluorescence intensity (a.u.).
To “GGAGAGGATGTCCCAGTTCCCACTATGGCTTGGTTACTGACGGAGTCACCTAGTGCAG” belongs 9010 fluorescence intensity (a.u.); to “ACCTCCACTCCCCGCCGAATTATGCCCGGATCTTGCCGCCCGGAGTCACCTAGTGCAG”, 10900 fluorescence intensity (a.u.).
In the case of “GTGCTGTAATCTCCGCTCTTTGCTCGCTGACTTGCATTATCGGAGTCACCTAGTGCAG” it was 11000 fluorescence intensity (a.u.); in that of “ACTTCTGTTCGCTCCATTGCATGTGCCTCCATCACAAGGCCGGAGTCACCTAGTGCAG”, 8430 fluorescence intensity (a.u.); in that of “CGATCTCGGTTGTGCTGAGAGCTTAGCGTTGACTTCGATGCGGAGTCACCTAGTGCAG”, 14200 fluorescence intensity (a.u.).
Take “GATAATTTCTTCATCTTTTTACTTATCTCCTCGCTAATTCCGGAGTCACCTAGTGCAG”: the binding signal was 10700 fluorescence intensity (a.u.).
For the sequence “GTCGTCTCAGTAGCCGAGTAAAGCAACCGTACGCTTCGACCGGAGTCACCTAGTGCAG”, the binding signal is 8040 fluorescence intensity (a.u.).
To “GGGTGGGGAGGTGGTGGTCGTCGGGCAGGTGGGGAGGATGCGGAGTCACCTAGTGCAG” belongs 23900 fluorescence intensity (a.u.); to “GCGAATCCCTCTTGTTTATCCAACTTTTGTCAACGTTATGCGGAGTCACCTAGTGCAG”, 8410 fluorescence intensity (a.u.).
In the case of “ACCTGACACCCAGCACAAGCTGTACCACATCCTTCTTCCACGGAGTCACCTAGTGCAG” it was 9460 fluorescence intensity (a.u.); in that of “CCTTATAACTTCCAACTGACAATTGTTTAACTCATTATGGCGGAGTCACCTAGTGCAG”, 8400 fluorescence intensity (a.u.).
To “CGTGAGCCATCCCCGAGCCGAGCTCTCTCTCTCTCGCTCTCGGAGTCACCTAGTGCAG” belongs 8720 fluorescence intensity (a.u.); to “ATCGGATTCTGTTGTTACATTTATTGATTGATTGAATCAGCGGAGTCACCTAGTGCAG”, 8270 fluorescence intensity (a.u.); to “TCAACTCCATCTGGTCATCAATCACTCTACCTTCATCTTCCGGAGTCACCTAGTGCAG”, 9080 fluorescence intensity (a.u.).
For the sequence “TGCGCGACACCATTGTTCTCCGAGATTCTCAAGGTCCCTTCGGAGTCACCTAGTGCAG”, the binding signal was 11000 fluorescence intensity (a.u.).
In the case of “AGAGCGGATATGACTTTTCAGCTGGAACATTTTACTTCTTCGGAGTCACCTAGTGCAG” it was 8120 fluorescence intensity (a.u.).
To “TTCCGGTTGTCACATAATGCTTCCGATCAATTTTTTTCGTCGGAGTCACCTAGTGCAG” belongs 8820 fluorescence intensity (a.u.).
To “GCTCATGCAGCCCTCGCGCCGGCGCCTGTGACCCTCGCGCCGGAGTCACCTAGTGCAG” belongs 9460 fluorescence intensity (a.u.); to “ACAGTTTGACTTTGACCAAAGTCAAAACGTCTTATAATCTCGGAGTCACCTAGTGCAG”, 15900 fluorescence intensity (a.u.); to “TGTTATTGTCCTGTATCAGTCCCGTGCTGTTTTTCTCTTTCGGAGTCACCTAGTGCAG”, 13000 fluorescence intensity (a.u.).
Regarding “TTCCCTCGTTTTGATCATTCGATCATTCCATGGTTTGGTTCGGAGTCACCTAGTGCAG”, the binding signal is 12200 fluorescence intensity (a.u.).
With “ACAGAATAGTCTCGGCCATTCGTTATTACGCTGCTTCCTTCGGAGTCACCTAGTGCAG”, the binding signal is 9450 fluorescence intensity (a.u.).
In the case of “TATGTTGTTCATATCAGTTCACCTTCTTTCCTTGAATTATCGGAGTCACCTAGTGCAG” it was 8090 fluorescence intensity (a.u.); in that of “GAGGGACATTGTTTGCACCGGTTTCGATAGTTGGAGGATTCGGAGTCACCTAGTGCAG”, 8240 fluorescence intensity (a.u.); in that of “AATCGTCCGCTTCCAACCGCCTGCGCATGTGTGCAACCACCGGAGTCACCTAGTGCAG”, 9080 fluorescence intensity (a.u.).
In the case of “CACTATCTTTATTTGTTTCTGTCTAATCTGTAAGAATACTCGGAGTCACCTAGTGCAG” it was 8050 fluorescence intensity (a.u.).
For “CTCCCTGCTTTCAGTGCTAGCTAGCTTCCTCTGACCTCTACGGAGTCACCTAGTGCAG”, the binding signal is 8880 fluorescence intensity (a.u.).
To “ACATGTTCTTTGTTTTATATTTTTCGTGTGACTTACATGTCGGAGTCACCTAGTGCAG” belongs 10100 fluorescence intensity (a.u.); to “CCTATATATCTCGCGGCCTCGCATCCCACCGCGACAAACCCGGAGTCACCTAGTGCAG”, 8150 fluorescence intensity (a.u.); to “CACCGCCACACTTCCTCCCTGCCATCCTCCATTTCTTCCTCGGAGTCACCTAGTGCAG”, 8100 fluorescence intensity (a.u.).
With “CCCTGATCTTCTACACCGTGGCTTTATTCAGCCCTCGTAACGGAGTCACCTAGTGCAG”, the binding signal was 11300 fluorescence intensity (a.u.).
In the case of “AACGGTCTTCGGTCAACGACCTAGCAATTGTTTTGATTTGCGGAGTCACCTAGTGCAG” it was 8730 fluorescence intensity (a.u.); in that of “GCAACCGCCGCCGCAATGTCCGTCACCGCCGGGGTCGCCCCGGAGTCACCTAGTGCAG”, 10500 fluorescence intensity (a.u.); in that of “ATTTGATGCCGTTGACTTTTTTAAATATGTTTAACCGTTCCGGAGTCACCTAGTGCAG”, 33000 fluorescence intensity (a.u.).
To “AGGGGAGGGGCGCTGTATTAATTCGAACGTAACCACCCTCCGGAGTCACCTAGTGCAG” belongs 10000 fluorescence intensity (a.u.); to “GCGGTGGGGAGGAGGTCGTCGACGCGAGGAGGTCCGACAGCGGAGTCACCTAGTGCAG”, 8040 fluorescence intensity (a.u.); to “CAAACTTTCAACTTTCCATCGCATCAAACCTTTCATACACCGGAGTCACCTAGTGCAG”, 8310 fluorescence intensity (a.u.).

The record behind these values is paper PMC7819943, “Rice protein-binding microarrays: a tool to detect cis-acting elements near promoter regions in rice”.
